Data source: PubChem BioAssay AID504808 (Drosophila RNAi Screening Center, 2011)

- Assay: 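Chromatin factors that keep E2F targets switched off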 (primary screen)
- Cell system: Drosophila S2 cells
- Reagent: long dsRNA against Drosophila genes
- Detection: 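Dual luciferase plate measurements; E2F-specific signal taken as firefly over Renilla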
- Direction: E2F firefly: higher = more E2F reporter activity; Renilla normaliser: higher = more normaliser reporter signal
- Call rule: 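a knock-down counted as active when the firefly/Renilla E2F signal rose above 50%, a threshold chosen arbitrarily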
In all, the deposit lists about 21,000 reagents; this is an unselected part of those that have a named target and a result. In the full data, 18 (0.084%) got an active call. 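Raw counts without plate normalisation, one of two replicates; the ratio scores behind the calls were not deposited.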 Entries without a mark were called inactive. The numbers tell different reagents against one gene apart. Names joined by + are all predicted targets of the reagent. Not given: the amount of reagent, the time to read-out.

Target gene | reagent | E2F firefly, rep 1 | Renilla normaliser, rep 1
CG32170 | 1 | 1.35e5 | 4456
Sh (Shaker) | 1 | 63819 | 2467
Sh (Shaker) | 2 | 83255 | 2738
Sh (Shaker) | 3 | 1.40e5 | 5994
Sh (Shaker) | 4 | 2.60e5 | 7217
Drsl6 (Drosomycin-like 6) | 1 | 1.07e5 | 3867
angel | 1 | 76732 | 3056
pea (peanuts) | 1 | 2269 | 234
Hr83 (Hormone receptor 83) | 1 | 1.48e5 | 6957
Rs1 | 1 | 3183 | 250
CG14280 | 1 | 1.30e5 | 7149
CG11380 | 1 | 70673 | 3993
pyx (pyrexia) | 1 | 94567 | 4198
pyx (pyrexia) | 2 | 84038 | 4192
CG32639 | 1 | 80947 | 2432
CG32212 + hpRNA:CR33940 | 1 | 96895 | 4145
Vmat + CG13330 | 1 | 2612 | 183
mnb (minibrain) | 1 | 1.20e5 | 6655
mnb (minibrain) | 2 | 1.44e5 | 6316
CG7991 | 1 | 92914 | 3786
CG8738 | 1 | 1.57e5 | 4849
CG14770 | 1 | 1.24e5 | 5313
Oatp30B (Organic anion transporting polypeptide 30B) | 1 | 81898 | 3499
Traf-like (TNF-receptor-associated factor-like) | 1 | 6978 | 728
CG2113 | 1 | 96430 | 4243
CG15459 | 1 | 1.38e5 | 6260
Scsalpha2 (Succinyl-coenzyme A synthetase alpha subunit 2) | 1 | 74810 | 3063
Hsp60D (Heat shock protein 60D) | 1 | 1.04e5 | 4064
RpS5a (Ribosomal protein S5a) | 1 | 1.57e5 | 5609
Polr1D + DCTN6-p27 | 1 | 90458 | 5600
kel (kelch) | 1 | 1.09e5 | 4580
CG31051 | 1 | 1753 | 920
vap (vacuolar peduncle) | 1 | 8409 | 764
tea (telomere ends associated) | 1 | 2549 | 196
tea (telomere ends associated) | 2 | 1.48e5 | 5222
CG34338 | 1 | 78096 | 2786

An excerpt from above, reduced to “E2F firefly, rep 1”.
pyx (pyrexia) #2	84038
CG32639	80947
CG32212 + hpRNA:CR33940	96895
Vmat + CG13330	2612
mnb (minibrain) #1	1.20e5
mnb (minibrain) #2	1.44e5
CG7991	92914
CG8738	1.57e5
CG14770	1.24e5
Oatp30B (Organic anion transporting polypeptide 30B)	81898
Traf-like (TNF-receptor-associated factor-like)	6978
CG2113	96430
CG15459	1.38e5

The list goes on.
Target gene | reagent | E2F firefly, rep 1 | Renilla normaliser, rep 1
PpD3 (Protein phosphatase D3) | 1 | 1.51e5 | 7343
CG34451 | 1 | 1.59e5 | 3624
CG34451 | 2 | 1.41e5 | 4060
BuGZ (Bub3 interacting GLEBS and Zinc finger domain protein) | 1 | 68225 | 3522
BuGZ (Bub3 interacting GLEBS and Zinc finger domain protein) | 2 | 1.02e5 | 4031
SPoCk (Secretory Pathway Calcium atpase) | 1 | 1.36e5 | 6742
SPoCk (Secretory Pathway Calcium atpase) | 2 | 1.33e5 | 5569
SPoCk (Secretory Pathway Calcium atpase) | 3 | 1.32e5 | 6539
SPoCk (Secretory Pathway Calcium atpase) | 4 | 1.38e5 | 5975
wun2 (wunen-2) | 1 | 1.58e5 | 5493
CG10000 | 1 | 1.23e5 | 6946
CG30286 | 1 | 1.13e5 | 5032
CG30479 | 1 | 99747 | 4296
Dsk (Drosulfakinin) | 1 | 1.39e5 | 6827
Vha44 (Vacuolar H[+] ATPase 44kD subunit) | 1 | 76255 | 3375
Vha44 (Vacuolar H[+] ATPase 44kD subunit) | 2 | 1.33e5 | 5397
CG6749 | 1 | 1.34e5 | 7449
CG12914 | 1 | 1.31e5 | 5019
CG6675 | 1 | 1.09e5 | 4801
CG11191 | 1 | 2599 | 199
Smr (Smrter) | 1 | 5411 | 872
Smr (Smrter) | 2 | 55374 | 4156
Vps50 (Vacuolar protein sorting 50) | 1 | 76344 | 3094
CG13026 | 1 | 1.77e5 | 10123
Zmynd10 (Zinc finger MYND-type containing 10) | 1 | 1.34e5 | 6297
CG14380 | 1 | 1.26e5 | 6198
Su(var)2-HP2 | 1 | 3034 | 217
CG7137 | 1 | 73519 | 3504
CG7251 | 1 | 91595 | 3661
Dhpr (Dihydropteridine reductase) | 1 | 89528 | 3923
miple1 (midkine and pleiotrophin 1) | 1 | 1.02e5 | 3890
CG17328 | 1 | 1.09e5 | 4452
snRNP-U1-C (small ribonucleoprotein particle U1 subunit C) | 1 | 1.08e5 | 6976
Ctl1 (Choline transporter-like 1) | 1 | 96210 | 4350
CG31759 | 1 | 1.40e5 | 5973
Su(var)3-9 (Suppressor of variegation 3-9) | 1 | 1.59e5 | 7334
CG13043 | 1 | 1.59e5 | 7970
CG32462 | 1 | 77574 | 4277
CG9338 | 1 | 90357 | 3781
CG5446 | 1 | 96665 | 4527
CG1986 | 1 | 1.25e5 | 7092
l(1)G0469 (lethal (1) G0469) | 1 | 7203 | 712
l(1)G0469 (lethal (1) G0469) | 2 | 1.49e5 | 6319
Jon25Bi (Jonah 25Bi) | 1 | 1.44e5 | 5071
CG15922 | 1 | 1.27e5 | 6795
ppk16 (pickpocket 16) | 1 | 1.35e5 | 5195
CG8929 | 1 | 69019 | 3774
CG11125 | 1 | 1.27e5 | 4704
TSG101 (Tumor susceptibility gene 101) | 1 | 1.67e5 | 8646
B9d1 | 1 | 1.21e5 | 6041
CG8112 | 1 | 1.18e5 | 6405
tow (target of wingless) | 1 | 72602 | 3716
dikar | 1 | 73964 | 3433
spz3 (spatzle 3) | 1 | 1.56e5 | 4939
spz3 (spatzle 3) | 2 | 1.54e5 | 4869
foi (fear-of-intimacy) | 1 | 81297 | 3722
ru (roughoid) | 1 | 87693 | 4020
CG12290 | 1 | 1764 | 968
rols (rolling pebbles) | 1 | 1.04e5 | 6769
rols (rolling pebbles) | 2 | 1.43e5 | 7140
rols (rolling pebbles) | 3 | 1.22e5 | 7015
sing (singles bar) | 1 | 1.52e5 | 6435
CG11275 | 1 | 99351 | 4209
Wdfy2 (WD repeat and FYVE domain containing 2) | 1 | 83369 | 3658
msl-1 (male-specific lethal 1) | 1 | 89820 | 3553
Larp7 (La related protein 7) | 1 | 1.11e5 | 4785
Rrp5 (Ribosomal RNA Processing 5) | 1 | 77670 | 3064
Cpsf100 (Cleavage and polyadenylation specificity factor 100) | 1 | 2034 | 1048
CG13168 | 1 | 89543 | 3791
iPLA2-VIA (calcium-independent phospholipase A2 VIA) | 1 | 79140 | 3297
ECSIT | 1 | 1.41e5 | 7421
